# Primary screen of a compound library

Sequences of proteins named here, by UniProt entry; tags and fusion partners are left off.
UniProt E9BF75, entry or part of it: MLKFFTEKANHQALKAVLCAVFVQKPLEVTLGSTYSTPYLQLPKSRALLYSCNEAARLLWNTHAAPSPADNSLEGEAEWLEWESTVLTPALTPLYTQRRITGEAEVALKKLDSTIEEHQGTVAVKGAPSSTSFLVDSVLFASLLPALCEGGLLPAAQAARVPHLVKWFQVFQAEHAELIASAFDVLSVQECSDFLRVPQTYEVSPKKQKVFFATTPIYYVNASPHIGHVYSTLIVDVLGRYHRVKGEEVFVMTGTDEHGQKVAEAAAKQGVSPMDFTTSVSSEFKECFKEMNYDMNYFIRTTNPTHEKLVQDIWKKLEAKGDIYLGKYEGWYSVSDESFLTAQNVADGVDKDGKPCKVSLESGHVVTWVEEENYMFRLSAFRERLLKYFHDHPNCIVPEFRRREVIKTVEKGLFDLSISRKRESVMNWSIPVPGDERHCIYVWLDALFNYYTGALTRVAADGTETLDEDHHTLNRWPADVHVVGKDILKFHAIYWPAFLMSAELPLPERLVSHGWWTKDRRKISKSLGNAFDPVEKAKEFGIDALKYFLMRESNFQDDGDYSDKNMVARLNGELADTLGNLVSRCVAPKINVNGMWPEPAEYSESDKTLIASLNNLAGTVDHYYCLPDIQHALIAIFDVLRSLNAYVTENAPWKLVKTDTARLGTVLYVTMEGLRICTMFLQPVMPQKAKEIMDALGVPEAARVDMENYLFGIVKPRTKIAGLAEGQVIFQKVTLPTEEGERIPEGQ

Data taken from ChEMBL document CHEMBL3988442, “University of Dundee, Small-Polar-MMV Screening Library” (2021).

A: 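Primary screen of methionyl-tRNA synthetase; the read-out is not stated. Target: Methionyl-tRNA synthetase (putative), Leishmania donovani (UniProt E9BF75). The test concentration is not given. The values are filed as inhibition. Size under these conditions: about 68,000 compounds, about 24 of them at 50% or above in at least one test.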
B: 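Assay on Mycobacterium tuberculosis, filed only as a heat shock assay from Cornell; the read-out is not stated. The concentration is filed as 10 mM, unlikely as a test dose, so the dose is not known. The record gives no direction; compounds that gave an IC50 in retests scored well above the rest, so higher reads as stronger inhibition. Of about 69,000 compounds tested this way, about 930 (1.4%) reached 50% or more in at least one test.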

All values are in %. How 0% and 100% were set is not recorded. Most values in the screen are low, and negative values occur. The compounds are a random part of those screened. A dash means the value is not listed here; it may have been measured.

| # | Compound | A | B |
|---|---|---|---|
| 1 | `O=C(c1cccnc1N1CCCCC1)N1CCCC(n2cccn2)C1` (stereo unspecified) | 13.14% | -16.63% |
| 2 | `CCN(C(c1cccnc1)c1ccc2c(c1)CCO2)S(C)(=O)=O` (stereo unspecified) | 12.5% | -12.28% |
| 3 | `CC(Sc1nnc(C2CC2)n1CC(N)=O)c1ccc(F)cc1F` (stereo unspecified) | 5.08% | 12.97% |
| 4 | `CCc1nc(C2CCCN2C(=O)c2nc(C)n3ccccc23)no1` (stereo unspecified) | 16.08% | 9.905% |
| 5 | `CCn1ccnc1CN1CCCN(C(=O)c2ccnn2C)CC1` | 3.684% | 10.75% |
| 6 | `CS(=O)(=O)N1CCc2ccc(=O)n(CCN3CCCC3)c2CC1.O=C(O)C(F)(F)F` | - | 21.99% |
| 7 | `Cc1nn(C)cc1-c1ccnc(N(C)Cc2cccs2)n1` | 15.84% | -25.1% |
| 8 | `COCCN1CCn2cc(CN(C)Cc3ccco3)nc2C1` | 15.38% | -18.06% |
| 9 | `COc1cccc(C(=O)N2CCCCC2c2nccs2)c1OC` (stereo unspecified) | 18.1% | 0.3974% |
| 10 | `CN(Cc1ccc(C#N)cc1)C(=O)c1ccnc(OC2CCC2)c1` | -1.63% | -8.154% |
| 11 | `CC(=O)N1CC2C[C@]2(NC(=O)c2ccco2)C1` (stereo partly specified) | 6.111% | -16.66% |
| 12 | `COc1ccc(-c2cc(C[C@@H]3C[C@H](N(C)C)C3(C)C)no2)cc1` | 0% | -28.56% |
| 13 | `CC/N=c1\nc(NCC)nc2n1C(O)(Nc1cc(C)ccc1C)CS2` (stereo unspecified) | 15.45% | 7.529% |
| 14 | `N#Cc1ccc(C(=O)N2CCC(Oc3ccc(C#N)cn3)CC2)cc1` | 3.846% | 1.7% |
| 15 | `Cn1nc(N2CCCC(C(=O)Nc3nc4ccccc4s3)C2)ccc1=O` (stereo unspecified) | 13.15% | 20.58% |
| 16 | `COCCN1CCC2(CCC1=O)CN(c1ccnc(SC)n1)CCN2C` (stereo unspecified) | 11.73% | -47.95% |
| 17 | `Cc1nc(C2CCN(C(=O)CO)CC2)cc(N2CCOCC2)n1` | 11.85% | 6.421% |
| 18 | `COC(=O)c1ccc(C(=O)N2CCCC(Nc3ccc(F)cc3)C2)cc1` (stereo unspecified) | 11.37% | -19% |
| 19 | `O=C(Nc1ccccc1)N1CCn2c(nnc2C2CCNCC2)C1` | 12.57% | -27.56% |
| 20 | `CC(C)C(c1cccnc1)N(C)C(=O)Cc1ccc(O)cc1` (stereo unspecified) | 1.449% | -1.158% |
| 21 | `CC(C)n1ccc(-c2cc(C(=O)NC3CC3)c3ccccn23)n1` | 12.68% | -17.13% |
| 22 | `CC[C@H](C)[C@@H](CO)NC(C)Cc1ccc(C)cc1` (stereo partly specified) | 17.76% | -12.56% |
| 23 | `CCc1ccc(CN(C)C(=O)C2CC(=O)N(c3cccc(O)c3)C2)nc1` (stereo unspecified) | 18.73% | -12.9% |
| 24 | `Cc1nnc(-c2cccc(C#N)c2)n1C1CCN(C2CC2)C1=O` (stereo unspecified) | 10.53% | -14.87% |
| 25 | `O=C(O)C(F)(F)F.O=C1CC(c2ccncc2)C2(CCN(C(=O)c3cccs3)CC2)N1` (stereo unspecified) | - | -12.94% |
| 26 | `O=C(c1cncs1)N1CCc2[nH]nc(Nc3ccccc3)c2C1` | 18.44% | 14.38% |
| 27 | `CCOCC(O)CN1CCN(C(=O)CC(C)(C)C)CC1` (stereo unspecified) | 6.536% | 4.844% |
| 28 | `Cn1cc(N2CCCC(SCc3nc(C4CC4)no3)C2=O)cn1` (stereo unspecified) | 12.46% | -34.82% |
| 29 | `CN(C)C(=O)c1ccc(-c2cscn2)cc1` | 8.571% | -5.345% |
| 30 | `CS(=O)(=O)NCc1noc2c1CN(C(=O)c1ccsc1)CC2` | 7.268% | 2.201% |
| 31 | `COCCN1CCC12CCN(c1ncccn1)C2` (stereo unspecified) | 11.35% | - |
| 32 | `CC(O)c1cccc(N2CCC3(CC2)Nc2ccccc2NC3=O)n1` (stereo unspecified) | 10.2% | -17.64% |
| 33 | `CC(=O)N1CCC(C)(c2cc(C(=O)NCC(C)(C)C)nc(C)n2)CC1` | 10.59% | -25.62% |
| 34 | `COc1ccc(NC2CCCN(Cc3cnc(N(C)C)s3)C2)cc1OC` (stereo unspecified) | 17.69% | 7.852% |
| 35 | `CC1CN(C)CCN1C(=O)Nc1nc(-c2ccc[nH]2)cs1` (stereo unspecified) | 16.75% | 16.17% |
| 36 | `Cc1n[nH]c(C(=O)N2CCCC(C)CC2)c1Br` (stereo unspecified) | 5.344% | 7.355% |
| 37 | `O=C(O)C(F)(F)F.[H][C@@]12CCN(S(=O)(=O)C3CC3)[C@@]1([H])CCN2Cc1ccc(C)cc1` | - | 3.499% |
| 38 | `N#CC1(NC(=O)c2nccc3ccccc23)CCC2(CC1)OCCO2` | 9.409% | -9.138% |
| 39 | `Cc1ccnc(OC[C@]23COC[C@H]2CN(C(=O)c2ncccn2)C3)n1` | 2.03% | - |
| 40 | `Cc1cnc(N2C[C@@H]3[C@@H](C2)OCC(=O)N3CC2CC2)nc1` | 9.42% | - |
| 41 | `Cc1nc(C)n(CC2CCCN2Cc2cccc3c2OCCO3)n1` (stereo unspecified) | 24.57% | -5.058% |
| 42 | `CC1=CC[C@@H]2CN(C(=O)c3ccc(-c4nc[nH]n4)cc3)C[C@@H]2C1` | 8.184% | - |
| 43 | `CN(CCN1CCCC1)c1nccc(N2CCN[C@H]3CS(=O)(=O)C[C@H]32)n1` | 14.93% | - |
| 44 | `O=C(c1cnccn1)N1CC(S(=O)(=O)c2ccc(Cl)cc2)C1` | 12.74% | 2.006% |
| 45 | `Cc1cc(N)nc(C2(C)CCCN2C(=O)Cc2ccc(F)cc2)n1` (stereo unspecified) | 16.77% | -12.36% |
| 46 | `N#Cc1ccc(CNc2ncc(C#N)cc2Cl)cc1` | 9.192% | 12.86% |
| 47 | `CC(C)=CCN1C[C@H]2CC[C@@H]1CN(C(=O)c1c[nH]c(=O)c(Cl)c1)C2` | 13.5% | - |
| 48 | `Cc1cc(C)n(C2CCN(S(=O)(=O)N3CCC(C)CC3)CC2)n1` | -8.571% | 1.096% |
| 49 | `CC1CN(CC(=O)NC2CCCC2)CCN1c1ccc2nncn2n1` (stereo unspecified) | 7.362% | 176.2% |
| 50 | `Cc1csc([C@@H]2C[C@H]3CN(c4ncc(F)cn4)C[C@H]3O2)n1` | 12.02% | - |
| 51 | `[H][C@]12CC[C@@H](N(C)c3ccc(C)nn3)[C@@]1([H])CN(C(=O)CC1CCOCC1)C2` | - | -0.9771% |
| 52 | `CCN(CC1CCOC1)C(=O)c1ccc(-c2ccsc2)nc1C` (stereo unspecified) | 13.31% | -12.08% |
| 53 | `CO[C@@H]1CCN(Cc2ccoc2)[C@@H]2CN(Cc3ccco3)C[C@@H]21` | 14.12% | - |
| 54 | `CC(=O)N[C@@H]1CN(Cc2ccccc2-n2nc(C)cc2C)C[C@H]1C(C)C` | 1.299% | 0.9012% |
| 55 | `O=C(O)c1ccccc1-c1cnc(Cn2c(=O)cc[nH]c2=O)s1` | 10.11% | -8.108% |
| 56 | `CN1CCc2c(c(COc3cncnc3)nn2CC2CC2)C1` | 4.498% | - |
| 57 | `O=C(O)C(F)(F)F.O=C(O)C(F)(F)F.O=C(c1c[nH]cn1)N1CCC(F)(F)C2(CCN(c3ccccn3)C2)C1` (stereo unspecified) | - | 6.804% |
| 58 | `COCC(=O)N1CCC(=O)N(C2CCCC2)Cc2cc(F)ccc21` | -3.562% | 44.15% |
| 59 | `O=C(O)C(F)(F)F.O=C(O)C(F)(F)F.O=C(O)C(F)(F)F.[H][C@@]12CN(CCOC)C[C@]1([H])[C@@H](OC)CCN2Cc1cccc(C)n1` | - | -27.81% |
| 60 | `Cc1nn(C)c(Cl)c1C1CCCN1Cc1cccc(C(N)=O)c1` (stereo unspecified) | 21.69% | -2.244% |
| 61 | `CN(Cc1cnn(C)c1)C(=O)NCCc1ccc2c(c1)OCCO2` | 6.032% | 38.16% |
| 62 | `CC(NC(N)=O)C(=O)NCc1ccc(Br)c(F)c1` (stereo unspecified) | 0.6211% | -13.22% |

The last 7 entries again:

Result for CN1CCc2c(c(COc3cncnc3)nn2CC2CC2)C1 was A: 4.498%.
Result for O=C(O)C(F)(F)F.O=C(O)C(F)(F)F.O=C(c1c[nH]cn1)N1CCC(F)(F)C2(CCN(c3ccccn3)C2)C1 (stereo unspecified) was B: 6.804%.
Result for COCC(=O)N1CCC(=O)N(C2CCCC2)Cc2cc(F)ccc21 was A: -3.562%; B: 44.15%.
Result for O=C(O)C(F)(F)F.O=C(O)C(F)(F)F.O=C(O)C(F)(F)F.[H][C@@]12CN(CCOC)C[C@]1([H])[C@@H](OC)CCN2Cc1cccc(C)n1 was B: -27.81%.
Result for Cc1nn(C)c(Cl)c1C1CCCN1Cc1cccc(C(N)=O)c1 (stereo unspecified) was A: 21.69%; B: -2.244%.
Result for CN(Cc1cnn(C)c1)C(=O)NCCc1ccc2c(c1)OCCO2 was A: 6.032%; B: 38.16%.
Result for CC(NC(N)=O)C(=O)NCc1ccc(Br)c(F)c1 (stereo unspecified) was A: 0.6211%; B: -13.22%.